In article PMC7819943, “Rice protein-binding microarrays: a tool to detect cis-acting elements near promoter regions in rice” one finds binding signal data, which are given here for 54 sequences.

This is one part of the list.

The assay addresses T1, OsSMF1 (Oryza sativa, UniProt Q6ZLB0 1-436).
T1 sequence: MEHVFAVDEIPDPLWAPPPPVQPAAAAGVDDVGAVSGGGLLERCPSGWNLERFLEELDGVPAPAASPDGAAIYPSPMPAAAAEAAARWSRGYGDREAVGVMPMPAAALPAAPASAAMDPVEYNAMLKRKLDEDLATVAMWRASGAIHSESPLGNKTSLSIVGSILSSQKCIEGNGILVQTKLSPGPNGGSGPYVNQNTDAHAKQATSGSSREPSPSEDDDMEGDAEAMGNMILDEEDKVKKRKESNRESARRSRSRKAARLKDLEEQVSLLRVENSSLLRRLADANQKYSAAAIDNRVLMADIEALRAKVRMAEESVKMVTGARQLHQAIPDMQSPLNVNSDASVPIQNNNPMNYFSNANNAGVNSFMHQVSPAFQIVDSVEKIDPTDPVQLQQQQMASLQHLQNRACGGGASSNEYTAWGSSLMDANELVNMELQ
In words: protein-binding microarray (RPBM); PBS, 2% BSA, 51.3 ng/ul salmon testes DNA, 50 uM zinc acetate, 200 nM TF, 25 C, 1 h; high values mean tight binding. To be noted: protein: recombinant; tags: N-terminal polyhistidine and DsRed monomer fusion (pET32a); chain copies: 2; label: CyDye5-dUTP incorporated in the synthesized complementary strand; 3' TTTTT single-stranded linker to array surface; dsDNA, one strand shown. The method in brief:
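The binding signal is fluorescence intensity per array feature (arbitrary units). Readings came from an Axon 4000B scanner after a washed, 2% BSA-blocked, double-stranded custom Agilent array had been incubated for 1 h at 25 °C with 200 nM protein and 50 µM zinc acetate. The protein was a Ni–NTA-purified transcription factor fused N-terminally to polyhistidine and DsRed, expressed in E. coli BL21-CodonPlus.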
On to “TCGTTATCTCTAACGAGCTAAGATGCCAGCTCGGCTCGTTCGGAGTCACCTAGTGCAG”, for which the binding signal is 3820 fluorescence intensity (a.u.). For “GGCCCCGTCGACGCTGTGCACCAAACACAATAAAGACATGCGGAGTCACCTAGTGCAG”, the binding signal is 3430 fluorescence intensity (a.u.).

As for “TCCACTCGCTCTAGTTTGCCTCGTCCCCGCCGCCACCACACGGAGTCACCTAGTGCAG”, the binding signal was 3400 fluorescence intensity (a.u.). In the case of “ATGTTTAGTTCCACGTCAAAATTGGAAGTTTGAAGAAATTCGGAGTCACCTAGTGCAG”, the binding signal is 3980 fluorescence intensity (a.u.).

“AGGCTCATACCATACGCTGTCATCACCGGCCAACACCACCCGGAGTCACCTAGTGCAG”: the binding signal was 4240 fluorescence intensity (a.u.).

“GTACCCTCAAAGCGTGTAGATTCACGGAGGATATTTAGTTCGGAGTCACCTAGTGCAG”: the binding signal is 3800 fluorescence intensity (a.u.). For “TAATTAAGTGTGTAAGCGTCGACGGTTTACGTGGAATTATCGGAGTCACCTAGTGCAG” the value was 4240 fluorescence intensity (a.u.); for “AGTGCCTCACCAGGTAGTGCATCGTCACCAGCGTCTCCACCGGAGTCACCTAGTGCAG”, 5260 fluorescence intensity (a.u.); for “GTGGTGTTGAAGGGGATGAGGTCGCCGACGGCGAGCGCGGCGGAGTCACCTAGTGCAG”, 3600 fluorescence intensity (a.u.).

In the case of “CTCCAGCCACCTCTCTCTCCCTCTCCCGTCACCGCCGACGCGGAGTCACCTAGTGCAG”, the binding signal is 3960 fluorescence intensity (a.u.). For “CAACCTCCGATTTCCAAATCCAGTTGTCTTCTTCTTCCCCCGGAGTCACCTAGTGCAG” the value was 7150 fluorescence intensity (a.u.).

For the sequence “GCCAGTTGTTGCTTCTGGGATCATCGCGTGGCATCTCACGCGGAGTCACCTAGTGCAG”, the binding signal is 5800 fluorescence intensity (a.u.). For the sequence “CTAAGAAACGGAAAGAGAAAGATGAACTAACACGTGGGCCCGGAGTCACCTAGTGCAG”, the binding signal is 6380 fluorescence intensity (a.u.). For “CCCTCGCTCGCCGGGCGTCTCCGTCACGAACAAGCGCCGCCGGAGTCACCTAGTGCAG” the value was 3940 fluorescence intensity (a.u.); for “GTATAGGAATTTCAAGACGTGGAATCTCTTTGGGCTGTGTCGGAGTCACCTAGTGCAG”, 6120 fluorescence intensity (a.u.); for “TCGCCGCCGCGGCCGCCTCCACCTCATCATCTCCCACCTCCGGAGTCACCTAGTGCAG”, 7900 fluorescence intensity (a.u.).

For the sequence “AGTCTTGACCCGTGTGCGTGTGTGATTCATTCCGCCGCAGCGGAGTCACCTAGTGCAG”, the binding signal is 3350 fluorescence intensity (a.u.). The result for “AATTTCTACTGTCATGCTTCCTTGTCCCATTACTACATTGCGGAGTCACCTAGTGCAG” reads 3900 fluorescence intensity (a.u.). The result for “CAACATATTGTAGCCGCACACGTAGCATGCAGTCCTGGATCGGAGTCACCTAGTGCAG” reads 3820 fluorescence intensity (a.u.); that for “TACAGTATGTTGTGGAAGGCCTTTGAATTATATTGCATTACGGAGTCACCTAGTGCAG”, 49000 fluorescence intensity (a.u.); that for “TGTAATGATTACATATGTGTGATGCTTTCACCATGCTAACCGGAGTCACCTAGTGCAG”, 3330 fluorescence intensity (a.u.). Regarding “GCTAATTCATGGCCCGATTTGATGCTGCGGCATGTGCAGTCGGAGTCACCTAGTGCAG”, the binding signal is 3670 fluorescence intensity (a.u.). The result for “TTTCTTTCTAATTTAGTGCCACATAAGCGCTACGTCAACCCGGAGTCACCTAGTGCAG” reads 6370 fluorescence intensity (a.u.).

In the case of “AGACCTTGTGTATACTTGAAGTCGTCTAATACGTGTTGATCGGAGTCACCTAGTGCAG”, the binding signal is 3860 fluorescence intensity (a.u.).

On to “CCAAGTGATATCTGTGTGTGTGTGTGTATATATATATCCTCGGAGTCACCTAGTGCAG”, for which the binding signal is 3500 fluorescence intensity (a.u.). On to “GGAGTTACCAGGAGTGATGTCGTACGCCTGGCCATCATCGCGGAGTCACCTAGTGCAG”, for which the binding signal was 3220 fluorescence intensity (a.u.). For “TAATTTCAGATTTAGCTGGCTGTAGAATTCACCACTTGATCGGAGTCACCTAGTGCAG”, the binding signal is 3250 fluorescence intensity (a.u.). For “GCGAACCGAGTTAATTTTCTTGAATAGTGACACATGCTCACGGAGTCACCTAGTGCAG” the value was 3540 fluorescence intensity (a.u.); for “AGCTAGCTGATCGATTAGCCTCGTCAGCTACAAGTGATCGCGGAGTCACCTAGTGCAG”, 8000 fluorescence intensity (a.u.). For the sequence “ATATCTCTATTCTATGCATTAGTCATACATGATTTTGAATCGGAGTCACCTAGTGCAG”, the binding signal was 3270 fluorescence intensity (a.u.).

As for “GCCGAGCAAGTCATACTCGGGTGGCACTGCGCGCGCTCGTCGGAGTCACCTAGTGCAG”, the binding signal was 3360 fluorescence intensity (a.u.). For “ATTCCACCGTAGTCGTACCCCGCCCTCTGCTTTTACTAGTCGGAGTCACCTAGTGCAG” the value was 3760 fluorescence intensity (a.u.); for “TGCGCCGTAACGTACGTGTCGTCTTCTAGCTGCAGCCAGTCGGAGTCACCTAGTGCAG”, 19900 fluorescence intensity (a.u.). In the case of “AGTCGCGGCGGCGGCGCTCGCGCGTGGCGTGGCGTGGCGACGGAGTCACCTAGTGCAG”, the binding signal was 8450 fluorescence intensity (a.u.).

With “TGTTCCAGTGTGGCAACTAGCACTTCCCACGTCCTTGCCACGGAGTCACCTAGTGCAG”, the binding signal is 4800 fluorescence intensity (a.u.). Consider “TCGACTTATTTTAAGTGCGGTTGTGGAGGTTTTATGTCCACGGAGTCACCTAGTGCAG”, for which the binding signal was 3370 fluorescence intensity (a.u.). The result for “GTTCTCGTCGCGAGGCGAGGATGACGTCATCGAGCATGTGCGGAGTCACCTAGTGCAG” reads 29100 fluorescence intensity (a.u.). For “TGTCTTGCAAATTAGTCATAATCTGTGCAATTAGTTATTTCGGAGTCACCTAGTGCAG”, the binding signal was 3300 fluorescence intensity (a.u.). Turning to “GACAGGAGGCAAGTAGTGTCAGCGACAGATGGGTCCCACTCGGAGTCACCTAGTGCAG”, the binding signal was 4470 fluorescence intensity (a.u.). On to “CAAAAGAACAATTATTGATCAACTAATGTACACGTCCCAGCGGAGTCACCTAGTGCAG”, for which the binding signal was 3200 fluorescence intensity (a.u.).

Turning to “CCTCCACTTCTCCCGGCGGTGGGGTACCTCATCGACGTCGCGGAGTCACCTAGTGCAG”, the binding signal was 3550 fluorescence intensity (a.u.).

For the sequence “ATGCCTTCAATATGCATGAGCTGGAAAAGAAGTTGTGTGTCGGAGTCACCTAGTGCAG”, the binding signal is 4200 fluorescence intensity (a.u.). The result for “CTAATATTGGCCTATATAGACACACGTGGGTGCGATGTTTCGGAGTCACCTAGTGCAG” reads 5380 fluorescence intensity (a.u.); that for “GCTTAAAGATCACATCAAGCTGACAGGGCGACCAGCCACCCGGAGTCACCTAGTGCAG”, 3640 fluorescence intensity (a.u.); that for “CACCCGCGCGTCGGCCCGCTCGAGCCCAATTACGGCCCGACGGAGTCACCTAGTGCAG”, 4120 fluorescence intensity (a.u.). Consider “TGTGCCAGTTGTTAGTCATGATCTTCCTGATGTGTCATCCCGGAGTCACCTAGTGCAG”, for which the binding signal was 10800 fluorescence intensity (a.u.). As for “GAACCAAGCGCCCGCTCCCGGCCGACGCCGACGCCGACGCCGGAGTCACCTAGTGCAG”, the binding signal is 3820 fluorescence intensity (a.u.).

In the case of “ATTAAATATATAGTATATAAGAATTATTATTATACCCATCCGGAGTCACCTAGTGCAG”, the binding signal was 7790 fluorescence intensity (a.u.). For “CGAAATAGCCCGCGACCTCTCTCTCTGTGTCTCCGCCGCCCGGAGTCACCTAGTGCAG” the value was 3280 fluorescence intensity (a.u.); for “CATAACTCTGGATCAGTATGTTGTGATTGCCAGCATGGCTCGGAGTCACCTAGTGCAG”, 5360 fluorescence intensity (a.u.); for “TGAACCTAATTAATCCATGATTATCCTATGTGATGCTACACGGAGTCACCTAGTGCAG”, 3310 fluorescence intensity (a.u.). As for “GGGAGGGCAACTGAAGAGGAGTGGCGAGGGAGGGCTTTTGCGGAGTCACCTAGTGCAG”, the binding signal was 3660 fluorescence intensity (a.u.).

On to “AAGTCAGGGTGTCCACGTCATCACCCTCCCTCTTTCTCCTCGGAGTCACCTAGTGCAG”, for which the binding signal is 55700 fluorescence intensity (a.u.). “GCGAGCGGCGGCGAGGAGTTCCACGGCGCCAAGGTCGCTGCGGAGTCACCTAGTGCAG”: the binding signal was 5820 fluorescence intensity (a.u.).
